Patent US20210107982A1
These are yes or no findings as the source states them, for the method shown. Some binding calls cover weakened binding; strength is not graded here.

B1: 41BB-2-IgG2 (antibody, V domains shown)
VH: QVQLQESGGGLVQPGGSLRLSCAVSGFTFSSYAMHWVRQAPGKGLEWVAVISYDGSKKWYADSVKGRFTISRDNSKNTLYLQMNSLRAEDTAVYYCARNQGSGSYLYYYYMDVWGKGTTVTVSS
VL: QSALTQPRSVSGSPGQSVTISCTGTSSDVGGYNYVSWYQQLPGKAPKVIIYEVSNRPSGVSNRFSGSKSGNTASLTISGVQSEDEADYYCSSYTSSSTFYVFGTGTQLTVLS
B2: 41BB-9-IgG2 (antibody, V domains shown)
VH: QVQLVQSGAEVKKPGSSVKVSCKASGGTFSSYAISWVRQAPGQGLEWMGGIIPISGAVNYAQKFQGRVTITADESTSTAYMELSSLRSEDTAVYYCARDQFIKYYDFSSGYFPNGFDIWGKGTLVTVSS
VL: QTVVTQPPSVSVSPGQTASITCSGDKLGDKYAAWYQQKPGQSPVLVIYQDTVRPSGIPERFSGSNSGNTATLTISGTQAMDEADYYCQTWVSSTGVFGTGTKVTVLG
B3: 41BB-13-IgG2 (antibody, V domains shown)
VH: EVQLVETGVEVKKPGASVKVSCKASGYTFTSYYMHWVRQAPGQGLEWMGIINPSGGSTSYAQKFQGRVTMTRDTSTSTAYMELSSLRSEDTAVYYCARDLGEGYDFWSGYYTPSGAFDIWGKGTMVTVSS
VL: QSALTQPASVSGSPGQSITISCTGTSSDVGGYNYVSWYQQRPGKAPKLIIYDVTTRPSGVSNRFSGSKSGTTASLTISGLQAEDEADYYCSSYTSYSTWVFGGGTKLTVLG
B4: 41BB-27-IgG2 (antibody, V domains shown)
VH: QVQLQESGPGPVKPSETLSLTCAVSGGSISSSHWWSWVRQPPGKGLEWIGEIYHSGRTYYNPSLKSRVTISVDTSRNQFSLKLSSVTAADTAVYYCAREDGGIMDVWGQGTLVTVSS
VL: LSSELTQDPAVSVALGQTVRITCQGDSLRRFYASWYQQKPGQAPVLVIYGKNNRPSGIPDRFSASDSGNTASLTITGAQAEDEADYYCSSRDRSGYRWVFGGGTKVTVLG

target: Rhesus 4-1BB (Sinobiological, Cat #90847-K08H) (Rhesus) (UniProt F6W5G6); experiment: ELISA, antigen coated at 25 ng/well, antibody 500 ng/mL

binding, binds:
B1
B2
B3
B4
